Results as given in article PMC9589885, “A designed antimicrobial peptide with potential ability against methicillin resistant Staphylococcus aureus” (Frontiers in Microbiology, 2022).
Converted amounts (≈) assume the structure as drawn.

System: Candida albicans (ATCC/0331)
Test: microbe, parasite or virus in culture
Type: cell-based
Conditions: C. albicans ATCC/0331, broth dilution, 37°C, 16 h
Source text: The standard strain of Staphylococcus aureus (S. aureus, ATCC6538), Escherichia coli (E. coli, ATCC25922), Pseudomonas aeruginosa (P. aeruginosa, ATCC9027), Acinetobacter baumannii (A. baumannii, ATCC19606) and Candida albicans (C. albicans, ATCC/0331) used in this experiment was purchased from the microbial strain collection center of Guangdong Province. The methicillin resistant strain of Staphylococcus aureus (MRSA, SAZ) and clinically isolated antibiotic-resistance strains (SA115775 and SA15192) were clinically isolated from the First Affiliated Hospital of Kunming Medical University. The strains of C. albicans were cultured in 1/3 YM Medium (HB0297-1) + 2/3 RPMI 1640 medium (10-040-CVR, Corning), and other bacterial strains were cultured in Luria-Bertani (LB: 2 g tryptone, 1 g yeast extract, 2 g sodium chloride and 200 ml deionized water) broth.
Briefly, bacteria strains were diluted and adjusted to the concentration of 2 × 10^5 CFU/ml using RPMI 1640 medium. Samples were prepared as a stock solution in saline, and then diluted to a series of concentrations. […] Finally, an absorbance at 600 nm was measured by a microplate reader to estimate bacterial growth. The MIC was defined as the lowest concentration where the bacterial growth could not be detected completely.

MIC: 1.27 µM (≈ 0.389 µg/mL)
Compound: OC(Cn1cncn1)(Cn1cncn1)c1ccc(F)cc1F [Fluconazol, fluconazol]
